These are yes or no findings as the source states them, for the method shown. Binding seen in cells or lysates may run through a third protein. Binding can be weak; no strength is given.
Columns and labels:
USP8 [1] = biological target: T1, USP8 (UniProt P40818); experiment: co-IP with TMEM79 overexpressed or knocked out (FIG. 11D, 11E)
T1 sequence (looked up): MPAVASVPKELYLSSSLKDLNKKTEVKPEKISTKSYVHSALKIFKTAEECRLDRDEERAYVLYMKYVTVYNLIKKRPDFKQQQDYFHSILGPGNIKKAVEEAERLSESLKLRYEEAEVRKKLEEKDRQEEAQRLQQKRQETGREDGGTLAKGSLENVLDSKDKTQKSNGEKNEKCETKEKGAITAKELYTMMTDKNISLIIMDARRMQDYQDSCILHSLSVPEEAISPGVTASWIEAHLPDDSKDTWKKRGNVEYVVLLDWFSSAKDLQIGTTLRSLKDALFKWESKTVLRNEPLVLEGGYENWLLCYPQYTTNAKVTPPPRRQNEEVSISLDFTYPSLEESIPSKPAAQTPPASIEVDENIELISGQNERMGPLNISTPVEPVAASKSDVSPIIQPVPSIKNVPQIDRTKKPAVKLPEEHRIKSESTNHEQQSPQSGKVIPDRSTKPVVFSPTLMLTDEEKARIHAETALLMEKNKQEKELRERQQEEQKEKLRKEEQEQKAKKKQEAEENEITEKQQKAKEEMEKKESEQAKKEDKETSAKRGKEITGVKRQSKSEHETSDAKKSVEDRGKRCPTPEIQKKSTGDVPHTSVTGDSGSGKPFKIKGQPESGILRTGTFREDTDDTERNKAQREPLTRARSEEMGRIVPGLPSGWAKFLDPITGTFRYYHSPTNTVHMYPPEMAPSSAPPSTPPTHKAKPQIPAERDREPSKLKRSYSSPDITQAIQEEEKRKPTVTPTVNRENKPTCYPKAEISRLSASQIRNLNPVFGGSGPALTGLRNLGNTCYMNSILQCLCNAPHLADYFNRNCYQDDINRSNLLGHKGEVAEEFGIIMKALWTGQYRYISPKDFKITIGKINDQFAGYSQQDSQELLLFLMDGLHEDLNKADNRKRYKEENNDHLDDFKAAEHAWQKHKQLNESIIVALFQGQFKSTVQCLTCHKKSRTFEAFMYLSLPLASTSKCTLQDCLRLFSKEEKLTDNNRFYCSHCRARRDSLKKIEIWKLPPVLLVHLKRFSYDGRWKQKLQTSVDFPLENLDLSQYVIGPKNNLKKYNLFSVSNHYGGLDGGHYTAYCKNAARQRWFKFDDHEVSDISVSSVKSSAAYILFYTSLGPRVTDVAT

USP8 [2] = biological target: T1, USP8; experiment: co-IP in TMEM79 knockout cells; also unaffected by TMEM79 overexpression (FIG. 11D, 11E)

In the case of FZD5 (receptor), the binding (USP8 [1]) is reported as “binds” and the binding (USP8 [2]) is reported as “binds”.
